Drawing on publication PMC10985091, this text covers binding for one substance.

Amino acid sequences for entries named in this document (tags omitted). A change or cut given only in a name is not applied to a line headed by its entry.
UniProt Q13309: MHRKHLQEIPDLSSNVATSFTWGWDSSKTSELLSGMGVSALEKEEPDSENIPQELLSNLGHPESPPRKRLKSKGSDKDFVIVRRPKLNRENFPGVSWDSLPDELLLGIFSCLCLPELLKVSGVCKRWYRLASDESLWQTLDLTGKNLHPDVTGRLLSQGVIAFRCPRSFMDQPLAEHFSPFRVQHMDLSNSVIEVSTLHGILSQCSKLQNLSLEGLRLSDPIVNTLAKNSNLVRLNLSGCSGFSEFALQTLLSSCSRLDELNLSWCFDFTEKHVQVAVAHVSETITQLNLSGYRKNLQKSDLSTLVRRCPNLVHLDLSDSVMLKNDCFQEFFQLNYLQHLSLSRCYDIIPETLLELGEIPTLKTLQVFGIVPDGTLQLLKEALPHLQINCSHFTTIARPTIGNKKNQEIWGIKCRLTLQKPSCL
UniProt P18754: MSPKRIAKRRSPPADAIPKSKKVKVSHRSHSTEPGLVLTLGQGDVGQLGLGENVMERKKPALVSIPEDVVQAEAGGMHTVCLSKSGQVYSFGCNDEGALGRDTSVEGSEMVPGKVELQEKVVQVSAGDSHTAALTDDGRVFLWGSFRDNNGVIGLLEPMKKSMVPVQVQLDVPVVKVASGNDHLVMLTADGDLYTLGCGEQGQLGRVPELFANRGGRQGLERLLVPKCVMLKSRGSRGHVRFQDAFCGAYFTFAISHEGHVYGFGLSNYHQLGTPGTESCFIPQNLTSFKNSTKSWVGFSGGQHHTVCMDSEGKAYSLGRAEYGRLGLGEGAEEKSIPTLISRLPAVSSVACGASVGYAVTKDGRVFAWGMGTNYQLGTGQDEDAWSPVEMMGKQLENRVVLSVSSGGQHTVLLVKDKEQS

The target of the assay is Skp2^AA (RxxL motif in D-box I mutated to AxxA) (UniProt Q13309). Put plainly: co-IP; exogenous co-immunoprecipitation from HEK 293T cells transfected 48 h; IP buffer 250 mM NaCl, 50 mM Tris, 0.5 mM EDTA, 0.5% NP-40; indicated antibody and protein A-agarose overnight at 4 °C; RCC1 detected by anti-flag (M2), Skp2 by anti-myc.

Results are given in words; binding and its absence hold for the method and conditions named. Binding seen in cells or lysates may run through a third protein. Binding can be weak; no strength is given.

As to Flag-RCC1 (from UniProt P18754 1-421), the binding entry is given as “binds”.
